From patent publication US11702417B2, “Compounds for improving mRNA splicing” (The General Hospital Corporation, priority 2015, dated 2023)
For at least one compound, name, drawing or mass did not settle the structure.

Legend:
IKAP protein = assay: In vivo FD mouse model: IKAP protein in liver by western blot; conditions: 30 mg/kg/day
Procedure: Six transgenic mice were fed daily with 10% DMA/45% PEG 300/12% EtOH/33% sterile water solution for the same duration. The mice were given food and water ad libitum, and changes in body weights were monitored on a daily basis. On the eighth day the mice were dosed for the last time and after 1 hour were sacrificed and dissected. Plasma, lungs, muscle, liver, heart, brain, kidney, sciatic nerve, and trigeminal nerve were collected. Splicing was evaluating by RT-PCT and IKAP protein was evaluated using Western Blotting. Protein extracts were obtained by homogenizing liver or cell pellets in RIPA buffer (Tris-HCl 50 mM, pH 7.4; NaCl 150 mM; NP-40 1%; Sodium deoxycholate 0.5%; SDS 0.1%) containing protease inhibitor cocktail (Sigma), DTT (100 μM) and PMSF (100 μM). Insoluble debris were discarded after centrifugation and protein concentration was determined using Pierce® […] BCA Protein Assay Kit (Thermo Scientific). 50 μg of protein was separated on NuPage 4-12% Bis-Tris Gel (Invitrogen) and transferred into nitrocellulose membrane (Thermo Scientific). […]

IKBKAP exon 20 inclusion = assay: In vivo familial dysautonomia mouse model: splicing analysis in tissues
Procedure: […] Every dosing group and the control group (vehicle) consisted of 6 mice. The mice were given food and water ad libitum, and changes in body weights were monitored on a daily basis. On the eighth day the mice were dosed for the last time and after 1 hour the mice were sacrificed and dissected. Plasma, liver, kidney, heart and brain were collected.
The following solutions were prepared daily: Compound (230) in 10% DMA/45% PEG 300/12% EtOH/33% sterile water; and Compound (270) in 10% DMA/45% PEG 300/12% EtOH/33% sterile water.
[…] Six transgenic mice were fed daily with 10% DMA/45% PEG 300/12% EtOH/33% sterile water solution for the same duration. The mice were given food and water ad libitum, and changes in body weights were monitored on a daily basis. On the eighth day the mice were dosed for the last time and after 1 hour were sacrificed and dissected. Plasma, lungs, muscle, liver, heart, brain, kidney, sciatic nerve, and trigeminal nerve were collected. Splicing was evaluating by RT-PCT and IKAP protein was evaluated using Western Blotting.

[1] = oral gavage eight days, all doses tested (10, 30 and 60 mg/kg/day)

SMILES: Clc1nc(NCc2ccncc2)c2cc[nH]c2n1 [(100)]
- level of the IKAP protein in liver (IKAP protein): increased the level of the IKAP protein
- splicing in heart compared with Kinetin (IKBKAP exon 20 inclusion; 10 mg/kg/day, eight days): improved splicing better than Kinetin at 400 mg/kg/day
- splicing correction in liver compared with Kinetin (IKBKAP exon 20 inclusion; 30 mg/kg/day, eight days): reached the same level of correction observed with Kinetin treatment at 400 mg/kg/day
- inclusion of exon 20 in C57BI6-FD mouse tissues (FIGS. 1A-6) (IKBKAP exon 20 inclusion; 10, 30 and 60 mg/kg/day, 8 days): useful for improving inclusion of exon 20
- splicing in brain (IKBKAP exon 20 inclusion; 30 and 60 mg/kg): corrected splicing
- splicing in kidney (IKBKAP exon 20 inclusion; even at 10 mg/kg/day): improvments were observed
- splicing in heart (IKBKAP exon 20 inclusion; [1]): improved splicing
- splicing in kidney (IKBKAP exon 20 inclusion; [1]): improved splicing
- splicing in liver (IKBKAP exon 20 inclusion; [1]): improved splicing
